Experimental data as given in PubChem BioAssay AID1347423 (Functional Genomics Laboratory (NCATS/FGL), 2020).
Out of some 52,000 sequences screened, about 210 (0.4%) were called active.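 How the source made its calls: active means gene whose silencing raises cell survival under the drug, median off-target-corrected z-score across its silencing RNAs 2 or more; inactive means the rest.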 This is one part of the list.

Assay: Resistance to Poly (ADP-Ribose) Polymerase inhibitor: Gene Identification via Genome-wide siRNA Screen
Conditions: mouse BRCA2 R2336H ES cells, olaparib, CellTiter-Glo viability; hits give high values
Summary of the method: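 Genome-wide siRNA screen (3 siRNAs/gene, 20 nM) in mouse ES cells carrying hypomorphic BRCA2 R2336H; olaparib 500 nM added 48 h post-transfection, CellTiter-Glo viability 72 h later. Normalized to plate-median negative control; MAD z-scores, gene median, seed-adjusted.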

Sequence	z-score
CCAACAGGGAGUGUUGAUUTT against Oas1b	inactive: 0.573
GCAUGUAUAGCCACUUUUGTT against Ifna6	inactive: -0.801
GGAAAUCCUGCCAUCAAACTT against 1110001A12Rik	inactive: 0.774
CGCGCCCGUCAAAUUUGAUTT against AI847670	inactive: 0.563
CGAAGAGAUCUCACUAUAATT against Trnt1	inactive: 0.481
GCAGUAUGUAAACCCUUACTT against Olfr1463	inactive: -2.43
GCAAGUUAUCCAGCACUCATT against Ylpm1	inactive: -1.57
GCCUGUAUGAGCUCACUGUTT against Fbxo2	inactive: -0.656
GGUACACACUGUGUGGCUUTT against Paqr4	inactive: -0.166
GGUACGAGAACAACUGACUTT against Pte2a	inactive: -0.847
UAAUCAUGAGCUCUUCCGATT against MGI:2684414	inactive: 1.53
CCUUCUUUAUAGGUAUGACTT against BC025816	inactive: -0.126
GGGAGAGCACAGAUGUGGATT against 5830472H07Rik	inactive: 1.23
GGCAAAGUGUCCCUCCGAATT against C130057D23Rik	inactive: 2.03
GGUGAAAUCCAUUAAAGAATT against Fth1	inactive: 1.36
GCAACUUUAAUGACAGCGUTT against Moxd1	inactive: -0.598
CCCACCUAGCAUACGACUATT against Kazald1	inactive: -0.209
GGCUUUUGAAGUAAAUACATT against Pcdhb14	inactive: 0.332
GGUGUUAGCUUCUCAAAAUTT against Tmem27	inactive: 0.34
GGAGUGCUGAUAAAAGAAGTT against 2010107E04Rik	inactive: -1.2
GGAACUGCCAGUUGACAUUTT against Olfr689	inactive: -0.199
GGCAACAUCACUGAGUAUCTT against Glg1	inactive: 0.951

Part of the list above, comma-delimited.
Sequence,z-score
CCAACAGGGAGUGUUGAUUTT against Oas1b,inactive: 0.573
GGAAAUCCUGCCAUCAAACTT against 1110001A12Rik,inactive: 0.774
GGCUUUUGAAGUAAAUACATT against Pcdhb14,inactive: 0.332

The list goes on.

Sequence	z-score
CCACCUUUCGUUGUUACAATT against Stk36	inactive: -1.14
GGUGACAUUUGAAAAUGUCTT against Slc25a12	inactive: 0.652
GGCAUCUUUGGAGACUGGUTT against Sycn	inactive: -0.929
CCGAGUGGUGAGUCUUCUUTT against Olfr629	inactive: -0.272
GCAGAGCGGUAAUCUAUCUTT against 5031410I06Rik	inactive: 1.14
CCUCUCCUCUAUUCAACACTT against Olfr472	inactive: 1.48
GGCCAAAAAUGAAAGAAAUTT against Myo15	inactive: -0.962
CCCUGUUGCUGACAUUUAUTT against Wasf3	inactive: -0.166
GGUUGACACUCUGAGGGAATT against Pld2	inactive: -0.618
GGUCUAUCGCUUGCUUUUUTT against Abca2	inactive: -0.086
GGUAGAACAACAGAACAAUTT against Myo5b	inactive: -0.895
GGACCUUUUGUCUAUAAUGTT against Arl7	inactive: -1.84
CCACUUCAGUAUUUGGCUUTT against T2R37	inactive: -0.456
GGGUCAUGAAGUGAUGGUUTT against AI788959	inactive: 1.41
CGGAUUCGUCUGUUUUCUGTT against Ddi2	inactive: 0.806
GCUGAGAGGUAAAGACACATT against 1700051C09Rik	inactive: -0.623
GGAACGUAAACUAAGCCCGTT against Foxb1	inactive: 1.01
GGAAUACGUAUACUUCAGCTT against B230399E16Rik	inactive: 1.37
GGAGAGAGACACAAGCUUGTT against BC019977	inactive: 0.55
GGGUUAGAGUAAGGUAUUATT against Tsn	inactive: -0.569
GCAGUUAUUCUGAGAGUGATT against Olfr1385	inactive: -0.193
GGAAGAUGACAAGAUCUAUTT against 2810428C21Rik	inactive: -1.12

A stretch taken from the entries so far, for reference:
Sequence	z-score
GCAGAGCGGUAAUCUAUCUTT against 5031410I06Rik	inactive: 1.14
CCUCUCCUCUAUUCAACACTT against Olfr472	inactive: 1.48

(further entries)

Sequence	z-score
GGGACAAAACCUUGAUGGUTT against V1rh3	inactive: 0.22
GGAAUAAUUUCACUGACUUTT against Hint3	inactive: -0.796
GGAUAACAGAGAUUUCUCCTT against Il15ra	inactive: 1.29
GGGUUUGGGCUUCAACAUCTT against Lin7b	inactive: 0.799
GCAUCAACAAUCAAAGUUGTT against Sema3c	inactive: -0.0674
GCAAUUGUCAUUAGUUUUGTT against 4432416J03Rik	inactive: 0.589
GCAUCGUCUAUCAGCUGAUTT against Rraga	inactive: 0.662
GGCAUGAGACAAGCUAGUCTT against Mrgpre	inactive: -1.04
CCCAAACAGACUAGAUCCGTT against Rab20	inactive: -1.16
GUCUGAACUUCUUAGCAUCTT against Uchl4	inactive: 0.101
GGCAGAUUCAGACCUUCGATT against Sult1c2	inactive: -0.055
GGAUCGUAGCUACAGCCAATT against AA691260	inactive: 0.588
GCAUCACACAGAAUAUGUUTT against F10	inactive: -0.688
GCCAUUAUGACAGAACGCATT against Adra1d	inactive: 1.93
GGAUAACCUAAUGUAGAUATT against Nphs2	inactive: 1.1
GGAGAGAAAGAAGUUGUUGTT against Lcn5	inactive: 2.43
CGAGGGCCUGAAAAACCUGTT against Hbb-b2	inactive: -1.17
GGUCAUGGAUCAGAAAGAATT against Hnrpd	inactive: -0.934
GGUUCUCACGCGGUUUUUGTT against D430024F16Rik	inactive: 0.6
GCAGAGGUACGUGUUUGACTT against Gdf5	inactive: -0.0517
GGCGAGAACAGUUUGAGUUTT against 1700111A04Rik	inactive: -0.414
GGCUAUGCAAUACCAGGUCTT against BC004012	inactive: -0.51
